{"source": "PubChem BioAssay AID1259254 | NCATS – 2017", "assay": "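Finding genes that stop cells copying their DNA twice in one cycle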 (primary screen)", "cells": "human HCT116 colorectal cancer cells", "reagent": "single siRNA against human genes", "duration": "3 days", "measured": "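Imaged Hoechst DNA stain sorts each cell into a cycle phase by DNA amount; per plate, G2 fraction set to 0% for non-targeting and 100% for GMNN siRNA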", "reading the numbers": "G2 robust z-score and G2 cells, % of GMNN control: higher = more G2 cells, more excess DNA replication", "hit rule": "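An siRNA counts as active if its G2 robust z-score lies at least 5 MADs above the screen median; here such calls match roughly 38% of GMNN control or more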", "note": "The deposit covers about 59,000 reagents; shown is a random part of them. Of all reagents, about 1,550 (2.6%) got an active call. 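G2 share is only a proxy for re-replication; each gene was hit by three separate siRNAs, and active genes were retested.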 The numbers tell different reagents against one gene apart. Further read-outs or replicates are left out here. Not stated in the record: the amount of reagent."}
{"Gene": "FNDC3A", "siRNA no.": 1, "G2 robust z-score": 4.44, "G2 cells, % of GMNN control": 34.2, "Call": "inactive"}
{"Gene": "FNDC3A", "siRNA no.": 2, "G2 robust z-score": 0.784, "G2 cells, % of GMNN control": 8.49, "Call": "inactive"}
{"Gene": "FNDC3A", "siRNA no.": 3, "G2 robust z-score": 0.349, "G2 cells, % of GMNN control": 5.42, "Call": "inactive"}
{"Gene": "TREX2", "siRNA no.": 1, "G2 robust z-score": -0.731, "G2 cells, % of GMNN control": -2.18, "Call": "inactive"}
{"Gene": "TREX2", "siRNA no.": 2, "G2 robust z-score": 1.25, "G2 cells, % of GMNN control": 11.8, "Call": "inactive"}
{"Gene": "TREX2", "siRNA no.": 3, "G2 robust z-score": 5.43, "G2 cells, % of GMNN control": 41.1, "Call": "active"}
{"Gene": "CASP8AP2", "siRNA no.": 1, "G2 robust z-score": -0.787, "G2 cells, % of GMNN control": -2.57, "Call": "inactive"}
{"Gene": "CASP8AP2", "siRNA no.": 2, "G2 robust z-score": 0.0255, "G2 cells, % of GMNN control": 3.15, "Call": "inactive"}
{"Gene": "CASP8AP2", "siRNA no.": 3, "G2 robust z-score": -1.2, "G2 cells, % of GMNN control": -5.45, "Call": "inactive"}
{"Gene": "FIS1", "siRNA no.": 1, "G2 robust z-score": 0.706, "G2 cells, % of GMNN control": 7.93, "Call": "inactive"}
{"Gene": "FIS1", "siRNA no.": 2, "G2 robust z-score": -0.75, "G2 cells, % of GMNN control": -2.31, "Call": "inactive"}
{"Gene": "FIS1", "siRNA no.": 3, "G2 robust z-score": 0.599, "G2 cells, % of GMNN control": 7.18, "Call": "inactive"}
{"Gene": "ZNF579", "siRNA no.": 1, "G2 robust z-score": 0.95, "G2 cells, % of GMNN control": 9.65, "Call": "inactive"}
{"Gene": "ZNF579", "siRNA no.": 2, "G2 robust z-score": -0.311, "G2 cells, % of GMNN control": 0.783, "Call": "inactive"}
{"Gene": "ZNF579", "siRNA no.": 3, "G2 robust z-score": -0.471, "G2 cells, % of GMNN control": -0.35, "Call": "inactive"}
{"Gene": "EEF1A1P15", "siRNA no.": 1, "G2 robust z-score": 0.973, "G2 cells, % of GMNN control": 9.81, "Call": "inactive"}
{"Gene": "EEF1A1P15", "siRNA no.": 2, "G2 robust z-score": -0.432, "G2 cells, % of GMNN control": -0.0735, "Call": "inactive"}
{"Gene": "EEF1A1P15", "siRNA no.": 3, "G2 robust z-score": 0.229, "G2 cells, % of GMNN control": 4.58, "Call": "inactive"}
{"Gene": "FLCN", "siRNA no.": 1, "G2 robust z-score": 0.885, "G2 cells, % of GMNN control": 9.2, "Call": "inactive"}
{"Gene": "FLCN", "siRNA no.": 2, "G2 robust z-score": -0.688, "G2 cells, % of GMNN control": -1.88, "Call": "inactive"}
{"Gene": "FLCN", "siRNA no.": 3, "G2 robust z-score": -0.346, "G2 cells, % of GMNN control": 0.534, "Call": "inactive"}
{"Gene": "MTPAP", "siRNA no.": 1, "G2 robust z-score": -0.605, "G2 cells, % of GMNN control": -1.29, "Call": "inactive"}
{"Gene": "MTPAP", "siRNA no.": 2, "G2 robust z-score": 0.722, "G2 cells, % of GMNN control": 8.05, "Call": "inactive"}
{"Gene": "MTPAP", "siRNA no.": 3, "G2 robust z-score": -0.483, "G2 cells, % of GMNN control": -0.434, "Call": "inactive"}
{"Gene": "C2CD4A", "siRNA no.": 1, "G2 robust z-score": -0.368, "G2 cells, % of GMNN control": 0.379, "Call": "inactive"}
{"Gene": "C2CD4A", "siRNA no.": 2, "G2 robust z-score": 0.0689, "G2 cells, % of GMNN control": 3.45, "Call": "inactive"}
{"Gene": "C2CD4A", "siRNA no.": 3, "G2 robust z-score": -0.793, "G2 cells, % of GMNN control": -2.61, "Call": "inactive"}
{"Gene": "RPS14P9", "siRNA no.": 1, "G2 robust z-score": -0.242, "G2 cells, % of GMNN control": 1.27, "Call": "inactive"}
{"Gene": "RPS14P9", "siRNA no.": 2, "G2 robust z-score": -0.776, "G2 cells, % of GMNN control": -2.49, "Call": "inactive"}
{"Gene": "RPS14P9", "siRNA no.": 3, "G2 robust z-score": 1.11, "G2 cells, % of GMNN control": 10.8, "Call": "inactive"}
